Test [1] addresses TCR ζ-chain (human (endogenous in P116)) (UniProt P20963). Briefly: co-IP; ζ-chain immunoprecipitated with agarose-bound anti-CD3ζ over night at 4 °C, blotted; steady state and CD3 stimulation.
Test [2] has as its target CD3ε of the TCR/CD3 complex (human (endogenous in Jurkat and P116)) (UniProt P07766). The test can be described thus: proximity ligation; in situ PLA (Duolink) with goat anti-CD3ε and mouse anti-Lck on fixed, saponin-permeabilised Jurkat and P116 cells (Zap70^neg, Zap70^wt or Zap70^C564A); unstimulated, anti-CD3ε (OKT3) or pervanadate for 5 min at 37 °C; a signal means a distance of less than 80 nm.

Protein sequences, listed by entry. Tags and fused reporters are not part of them. Lines headed by an entry give the natural chain unless they say otherwise; changes in a name come on top. Residues count along the entry.
UniProt P20963: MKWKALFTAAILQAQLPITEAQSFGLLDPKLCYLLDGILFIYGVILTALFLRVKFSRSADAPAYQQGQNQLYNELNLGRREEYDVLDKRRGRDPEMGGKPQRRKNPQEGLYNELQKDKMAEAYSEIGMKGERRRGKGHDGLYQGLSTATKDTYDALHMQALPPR
UniProt P07766, residues 23-207: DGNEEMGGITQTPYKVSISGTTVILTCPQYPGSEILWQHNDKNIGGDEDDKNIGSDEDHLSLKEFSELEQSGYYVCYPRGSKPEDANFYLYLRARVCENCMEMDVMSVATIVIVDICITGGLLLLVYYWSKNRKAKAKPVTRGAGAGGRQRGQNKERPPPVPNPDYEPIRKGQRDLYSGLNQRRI
UniProt P43403: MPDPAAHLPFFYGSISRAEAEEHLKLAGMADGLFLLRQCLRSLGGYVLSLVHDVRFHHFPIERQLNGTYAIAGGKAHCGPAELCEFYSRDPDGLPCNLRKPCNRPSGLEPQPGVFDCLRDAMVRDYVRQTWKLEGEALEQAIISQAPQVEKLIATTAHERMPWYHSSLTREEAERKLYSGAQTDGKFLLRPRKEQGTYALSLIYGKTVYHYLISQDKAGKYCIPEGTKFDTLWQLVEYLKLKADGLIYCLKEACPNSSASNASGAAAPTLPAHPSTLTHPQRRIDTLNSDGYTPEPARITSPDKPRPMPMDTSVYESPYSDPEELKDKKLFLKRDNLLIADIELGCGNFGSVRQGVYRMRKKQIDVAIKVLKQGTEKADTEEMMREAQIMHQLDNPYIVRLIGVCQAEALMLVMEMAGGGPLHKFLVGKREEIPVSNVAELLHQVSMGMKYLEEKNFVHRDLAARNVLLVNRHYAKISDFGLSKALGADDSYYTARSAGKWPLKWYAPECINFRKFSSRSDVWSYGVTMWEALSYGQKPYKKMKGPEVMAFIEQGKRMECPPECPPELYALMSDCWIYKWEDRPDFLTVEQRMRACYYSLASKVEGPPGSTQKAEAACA
UniProt P06239: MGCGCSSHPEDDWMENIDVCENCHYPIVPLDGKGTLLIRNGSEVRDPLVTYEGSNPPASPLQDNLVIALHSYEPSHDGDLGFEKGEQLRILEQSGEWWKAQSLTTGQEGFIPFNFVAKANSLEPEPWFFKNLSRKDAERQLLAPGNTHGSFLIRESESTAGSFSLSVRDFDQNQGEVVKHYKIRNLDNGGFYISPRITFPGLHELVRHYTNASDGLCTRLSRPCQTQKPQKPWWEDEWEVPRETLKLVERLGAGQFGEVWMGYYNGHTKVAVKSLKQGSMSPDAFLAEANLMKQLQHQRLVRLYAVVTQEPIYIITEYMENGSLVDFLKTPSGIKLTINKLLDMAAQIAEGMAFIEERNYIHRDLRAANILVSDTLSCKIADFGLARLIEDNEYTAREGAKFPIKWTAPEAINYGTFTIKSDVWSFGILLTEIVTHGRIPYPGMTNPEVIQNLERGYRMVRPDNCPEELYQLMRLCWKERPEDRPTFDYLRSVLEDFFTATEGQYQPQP

These are yes or no findings as the source states them, for the method shown. Binding seen in cells or lysates may run through a third protein. Some entries that bind do so weakly or less than the wild type.

Consider “Zap70 C564A mutant (Zap70^C564A) (from UniProt P43403 1-619) (enzyme)”, for which the binding entry in test [1] is listed as “binds”.
Regarding “Lck (from UniProt P06239 1-509) (enzyme)”, the binding entry in test [2] is reported as “binds”.
